Measurements taken from paper PMC5484543.
No constants are given. Whether binding was seen depends on the method and setting. In cells and extracts the contact can be indirect. Binding calls can cover weak binding; strength is not graded here. Where a sequence is shown, tags or fusion partners need not be part of it.

Assays:
Erlin1*-FLAG (human) = target: T1, Erlin1*-FLAG (human) (UniProt O75477); assay: co-IP
T1 sequence: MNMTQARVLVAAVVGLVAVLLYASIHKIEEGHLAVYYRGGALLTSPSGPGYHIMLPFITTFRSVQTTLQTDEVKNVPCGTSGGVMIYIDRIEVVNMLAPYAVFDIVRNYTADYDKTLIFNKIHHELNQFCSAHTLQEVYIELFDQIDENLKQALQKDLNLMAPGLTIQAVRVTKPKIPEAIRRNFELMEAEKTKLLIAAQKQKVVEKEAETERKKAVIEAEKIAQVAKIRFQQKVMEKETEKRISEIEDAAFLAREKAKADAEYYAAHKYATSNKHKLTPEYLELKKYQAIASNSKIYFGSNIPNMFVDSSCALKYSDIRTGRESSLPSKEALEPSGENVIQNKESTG

Erlin2*-FLAG (human) = target: T2, Erlin2*-FLAG (human) (UniProt O94905); assay: co-IP
T2 sequence: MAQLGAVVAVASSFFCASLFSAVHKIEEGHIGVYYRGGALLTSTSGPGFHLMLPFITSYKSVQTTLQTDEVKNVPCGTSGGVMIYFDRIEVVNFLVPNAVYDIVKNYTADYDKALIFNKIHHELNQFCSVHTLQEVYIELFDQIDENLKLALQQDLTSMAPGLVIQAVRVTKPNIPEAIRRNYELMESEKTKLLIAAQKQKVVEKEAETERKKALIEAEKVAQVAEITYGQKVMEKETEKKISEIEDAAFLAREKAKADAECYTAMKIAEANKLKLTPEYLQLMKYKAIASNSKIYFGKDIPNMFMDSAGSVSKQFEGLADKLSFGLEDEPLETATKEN

| Substance | binding (Erlin1*-FLAG (human)) | binding (Erlin2*-FLAG (human)) |
| --- | --- | --- |
| B12 (endogenous, CV-1) (simian (endogenous in CV-1)) | binds | binds |
| TMUB1 (simian (endogenous in CV-1)) |  | binds |
